According to US20240360228A1 (BIOLEGEND, published 2024):
Results are given in words; binding and its absence hold for the method and conditions named. Some results given as binding are weak or reduced against the parent protein; the word gives no strength.

Chains of the proteins cited; added tags and fusions are not shown. Lines headed by an entry give the natural chain unless they say otherwise; changes in a name come on top.
UniProt P51685: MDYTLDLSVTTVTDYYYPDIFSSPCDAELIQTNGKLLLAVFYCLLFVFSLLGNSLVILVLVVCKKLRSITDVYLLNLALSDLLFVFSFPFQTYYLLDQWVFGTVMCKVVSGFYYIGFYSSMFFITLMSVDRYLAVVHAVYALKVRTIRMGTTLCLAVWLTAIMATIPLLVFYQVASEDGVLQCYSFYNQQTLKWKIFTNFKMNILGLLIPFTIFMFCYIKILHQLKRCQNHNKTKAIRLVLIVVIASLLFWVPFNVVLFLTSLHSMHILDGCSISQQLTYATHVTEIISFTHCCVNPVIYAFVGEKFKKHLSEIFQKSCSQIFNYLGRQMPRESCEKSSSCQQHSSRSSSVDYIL

Molecular target: human chemokine (C-C motif) receptor 8 (CCR8) (human) (UniProt P51685)
Assay: flow cytometry, PE-conjugated antibody on human peripheral blood lymphocytes

binding: binds
B1: AB6 (antibody, V domains shown)
VH: QVQLKESGPGLVQPSQTLSLTCTVSGFSLTSYHVSWVRQPPGKGLEWMGVIWTGGSTTYNSLLKSRLSISRDISKSQVFLKMNSLQTEDTATYYCARGGTVVKGGFAYWGQGTLVTVSS
VL: DIQMTQSPASLSASLEEIVTITCQASQDIGNRLSWYQQKPGKSPQLLIYGATSLADGVPSRFSGSRSGTQYSLKISRLQVEDIGIYYCLQAYSTPLTFGSGTKLEIK
